Results are given in words; binding and its absence hold for the method and conditions named. Some binding calls cover weakened binding; strength is not graded here.

The target of the test is Physalis mottle virus (PhMV) virus-like particle, unmodified (assembled coat protein) (Physalis mottle virus) (UniProt P36351). In words: SEC + other: transmission electron microscopy; purified VLPs in PBS pH 7.4; negatively stained particles by TEM; SEC of native PhMV and the VLP-based vaccines, with and without loaded CpG-ODN 1585; both purified.

B1: Physalis mottle virus (PhMV) virus-like particle, unmodified (assembled coat protein) (complex, UniProt P36351 1-188)
chain: MDSSEVVKVKQASIPAPGSILSQPNTEQSPAIVLPFQFEATTFGTAETAAQVSLQTADPITKLTAPYRHAQIVECKAILTPTDLAVSNPLTVYLAWVPANSPATPTQILRVYGGQSFVLGGAISAAKTIEVPLNLDSVNRMLKDSVTYTDTPKLLAYSRAPTNPSKIPTASIQISGRIRLSKPMLIAN
On to B1, for which the binding result is listed as “binds”.

For the origin of these results see article PMC8230452.
